Source: the supplement of paper PMC10849652
The other results are listed elsewhere or left out.

Chains of the proteins cited; added tags and fusions are not shown. Lines headed by an entry give the natural chain unless they say otherwise; changes in a name come on top.
UniProt O43149: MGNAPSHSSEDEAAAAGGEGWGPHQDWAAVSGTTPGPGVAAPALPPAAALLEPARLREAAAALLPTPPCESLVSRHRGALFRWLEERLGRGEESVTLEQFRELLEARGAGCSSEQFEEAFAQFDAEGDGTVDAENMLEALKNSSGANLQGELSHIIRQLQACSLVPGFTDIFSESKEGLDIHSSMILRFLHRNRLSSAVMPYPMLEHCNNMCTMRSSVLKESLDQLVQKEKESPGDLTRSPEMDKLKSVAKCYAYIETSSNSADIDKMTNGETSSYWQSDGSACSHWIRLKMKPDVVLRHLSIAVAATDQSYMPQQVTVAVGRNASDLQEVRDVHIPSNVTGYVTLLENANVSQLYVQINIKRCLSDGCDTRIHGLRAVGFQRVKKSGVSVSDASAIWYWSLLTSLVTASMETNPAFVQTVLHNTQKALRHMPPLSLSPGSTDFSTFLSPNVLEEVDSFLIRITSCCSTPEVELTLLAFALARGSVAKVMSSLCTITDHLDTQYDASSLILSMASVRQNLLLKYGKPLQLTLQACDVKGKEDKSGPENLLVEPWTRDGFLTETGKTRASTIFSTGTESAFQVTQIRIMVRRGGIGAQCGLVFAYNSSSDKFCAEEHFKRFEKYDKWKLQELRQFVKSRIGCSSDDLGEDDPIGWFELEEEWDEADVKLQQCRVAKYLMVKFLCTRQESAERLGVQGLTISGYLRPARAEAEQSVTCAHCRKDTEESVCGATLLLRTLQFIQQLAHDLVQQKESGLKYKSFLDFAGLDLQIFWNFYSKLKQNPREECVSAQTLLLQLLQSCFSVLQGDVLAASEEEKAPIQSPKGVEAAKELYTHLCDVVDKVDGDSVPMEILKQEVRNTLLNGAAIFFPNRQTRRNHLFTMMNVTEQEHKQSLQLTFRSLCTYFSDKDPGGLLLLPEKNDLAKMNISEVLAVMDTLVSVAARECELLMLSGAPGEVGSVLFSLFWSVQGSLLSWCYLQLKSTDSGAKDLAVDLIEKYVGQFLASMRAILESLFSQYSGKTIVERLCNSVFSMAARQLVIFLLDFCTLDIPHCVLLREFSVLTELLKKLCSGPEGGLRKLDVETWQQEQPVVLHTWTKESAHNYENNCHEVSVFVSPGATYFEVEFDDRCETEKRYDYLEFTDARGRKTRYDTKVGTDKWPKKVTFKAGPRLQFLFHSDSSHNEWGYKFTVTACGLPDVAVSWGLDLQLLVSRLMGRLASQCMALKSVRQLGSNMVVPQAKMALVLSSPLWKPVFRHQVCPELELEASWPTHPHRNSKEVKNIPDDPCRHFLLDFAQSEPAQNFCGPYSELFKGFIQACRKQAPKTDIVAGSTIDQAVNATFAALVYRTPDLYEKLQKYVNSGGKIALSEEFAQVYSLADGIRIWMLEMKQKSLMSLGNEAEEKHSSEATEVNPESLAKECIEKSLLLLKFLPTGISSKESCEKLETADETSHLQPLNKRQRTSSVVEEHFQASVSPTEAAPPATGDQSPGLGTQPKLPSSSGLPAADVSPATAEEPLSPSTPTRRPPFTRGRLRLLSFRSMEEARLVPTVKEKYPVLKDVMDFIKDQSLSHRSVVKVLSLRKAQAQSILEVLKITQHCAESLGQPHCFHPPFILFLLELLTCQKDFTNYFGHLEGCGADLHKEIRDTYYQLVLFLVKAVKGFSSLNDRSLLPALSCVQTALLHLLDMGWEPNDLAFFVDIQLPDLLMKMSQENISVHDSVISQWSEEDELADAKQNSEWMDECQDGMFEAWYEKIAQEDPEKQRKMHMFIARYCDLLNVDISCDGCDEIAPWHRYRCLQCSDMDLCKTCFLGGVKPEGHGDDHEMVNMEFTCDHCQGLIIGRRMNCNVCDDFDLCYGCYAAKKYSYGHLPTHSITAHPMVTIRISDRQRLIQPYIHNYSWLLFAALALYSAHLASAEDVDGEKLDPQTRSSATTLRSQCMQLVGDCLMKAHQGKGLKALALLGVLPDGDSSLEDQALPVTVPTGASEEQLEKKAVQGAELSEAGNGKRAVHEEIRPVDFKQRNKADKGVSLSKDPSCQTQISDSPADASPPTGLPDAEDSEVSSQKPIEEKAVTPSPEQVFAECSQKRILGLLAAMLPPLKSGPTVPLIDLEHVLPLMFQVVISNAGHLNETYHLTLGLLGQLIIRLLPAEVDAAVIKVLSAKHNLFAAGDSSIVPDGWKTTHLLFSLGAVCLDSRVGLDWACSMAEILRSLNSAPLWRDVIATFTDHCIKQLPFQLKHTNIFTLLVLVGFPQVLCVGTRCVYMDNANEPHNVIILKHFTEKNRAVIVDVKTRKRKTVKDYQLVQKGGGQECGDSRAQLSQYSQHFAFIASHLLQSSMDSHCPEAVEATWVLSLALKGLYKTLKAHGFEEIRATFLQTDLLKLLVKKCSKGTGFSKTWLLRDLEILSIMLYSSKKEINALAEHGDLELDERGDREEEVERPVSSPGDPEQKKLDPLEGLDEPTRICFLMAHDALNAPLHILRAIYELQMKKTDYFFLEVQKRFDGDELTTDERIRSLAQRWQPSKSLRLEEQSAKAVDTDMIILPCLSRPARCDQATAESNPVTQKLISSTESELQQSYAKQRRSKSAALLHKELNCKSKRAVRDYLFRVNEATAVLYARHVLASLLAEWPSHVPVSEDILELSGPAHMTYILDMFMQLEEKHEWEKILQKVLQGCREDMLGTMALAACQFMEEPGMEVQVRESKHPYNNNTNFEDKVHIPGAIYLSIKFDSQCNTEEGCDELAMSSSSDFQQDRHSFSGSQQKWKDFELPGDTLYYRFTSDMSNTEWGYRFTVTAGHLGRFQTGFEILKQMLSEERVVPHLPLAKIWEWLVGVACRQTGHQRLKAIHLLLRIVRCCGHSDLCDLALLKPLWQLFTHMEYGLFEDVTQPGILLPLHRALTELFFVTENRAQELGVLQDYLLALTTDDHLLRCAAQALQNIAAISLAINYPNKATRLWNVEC
UniProt Q5SVZ6: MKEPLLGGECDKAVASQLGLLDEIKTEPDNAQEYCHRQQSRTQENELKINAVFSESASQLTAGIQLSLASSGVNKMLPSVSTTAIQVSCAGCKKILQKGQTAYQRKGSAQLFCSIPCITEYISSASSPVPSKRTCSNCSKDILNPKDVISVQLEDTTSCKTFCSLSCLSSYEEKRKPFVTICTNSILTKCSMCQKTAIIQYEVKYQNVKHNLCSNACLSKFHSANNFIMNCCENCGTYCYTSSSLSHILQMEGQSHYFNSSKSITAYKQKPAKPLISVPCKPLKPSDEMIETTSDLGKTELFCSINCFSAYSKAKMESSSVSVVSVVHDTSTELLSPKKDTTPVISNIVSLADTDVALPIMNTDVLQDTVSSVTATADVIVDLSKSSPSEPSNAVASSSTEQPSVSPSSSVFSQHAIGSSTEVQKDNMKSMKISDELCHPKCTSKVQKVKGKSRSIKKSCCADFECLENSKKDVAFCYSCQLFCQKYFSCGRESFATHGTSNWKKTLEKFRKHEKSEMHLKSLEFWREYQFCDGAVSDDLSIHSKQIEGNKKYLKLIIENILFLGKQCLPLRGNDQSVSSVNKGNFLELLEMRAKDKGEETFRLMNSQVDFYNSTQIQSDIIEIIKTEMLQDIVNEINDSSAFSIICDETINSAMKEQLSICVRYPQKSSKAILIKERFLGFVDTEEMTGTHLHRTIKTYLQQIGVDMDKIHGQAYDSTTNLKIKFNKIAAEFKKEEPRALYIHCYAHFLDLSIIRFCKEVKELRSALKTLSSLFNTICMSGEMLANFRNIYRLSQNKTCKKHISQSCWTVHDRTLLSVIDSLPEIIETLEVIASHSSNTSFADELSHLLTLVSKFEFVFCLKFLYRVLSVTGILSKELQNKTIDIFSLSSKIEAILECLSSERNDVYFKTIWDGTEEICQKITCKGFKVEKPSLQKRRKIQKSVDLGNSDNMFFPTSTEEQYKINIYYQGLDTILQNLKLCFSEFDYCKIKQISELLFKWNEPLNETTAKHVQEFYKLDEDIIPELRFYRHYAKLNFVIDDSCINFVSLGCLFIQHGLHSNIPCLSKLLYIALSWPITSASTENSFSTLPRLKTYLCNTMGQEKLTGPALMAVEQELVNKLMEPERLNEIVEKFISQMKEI
UniProt P35789: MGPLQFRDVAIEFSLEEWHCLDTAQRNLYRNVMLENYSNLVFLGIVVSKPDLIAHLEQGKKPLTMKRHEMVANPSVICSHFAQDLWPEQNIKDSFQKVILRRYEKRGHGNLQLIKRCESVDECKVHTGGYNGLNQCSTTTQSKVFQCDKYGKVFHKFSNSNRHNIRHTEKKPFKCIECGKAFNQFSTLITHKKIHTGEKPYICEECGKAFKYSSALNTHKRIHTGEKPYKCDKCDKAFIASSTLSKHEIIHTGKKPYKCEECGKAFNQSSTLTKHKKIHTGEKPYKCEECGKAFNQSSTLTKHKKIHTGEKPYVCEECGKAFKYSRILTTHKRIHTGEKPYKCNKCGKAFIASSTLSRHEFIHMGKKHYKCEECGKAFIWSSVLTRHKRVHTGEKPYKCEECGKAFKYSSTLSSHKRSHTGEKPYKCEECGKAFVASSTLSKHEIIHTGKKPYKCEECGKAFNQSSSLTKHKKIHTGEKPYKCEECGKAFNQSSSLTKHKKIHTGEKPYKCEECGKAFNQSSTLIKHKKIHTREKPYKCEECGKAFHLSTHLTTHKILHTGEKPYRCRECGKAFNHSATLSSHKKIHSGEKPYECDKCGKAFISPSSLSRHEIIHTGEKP
UniProt Q92610: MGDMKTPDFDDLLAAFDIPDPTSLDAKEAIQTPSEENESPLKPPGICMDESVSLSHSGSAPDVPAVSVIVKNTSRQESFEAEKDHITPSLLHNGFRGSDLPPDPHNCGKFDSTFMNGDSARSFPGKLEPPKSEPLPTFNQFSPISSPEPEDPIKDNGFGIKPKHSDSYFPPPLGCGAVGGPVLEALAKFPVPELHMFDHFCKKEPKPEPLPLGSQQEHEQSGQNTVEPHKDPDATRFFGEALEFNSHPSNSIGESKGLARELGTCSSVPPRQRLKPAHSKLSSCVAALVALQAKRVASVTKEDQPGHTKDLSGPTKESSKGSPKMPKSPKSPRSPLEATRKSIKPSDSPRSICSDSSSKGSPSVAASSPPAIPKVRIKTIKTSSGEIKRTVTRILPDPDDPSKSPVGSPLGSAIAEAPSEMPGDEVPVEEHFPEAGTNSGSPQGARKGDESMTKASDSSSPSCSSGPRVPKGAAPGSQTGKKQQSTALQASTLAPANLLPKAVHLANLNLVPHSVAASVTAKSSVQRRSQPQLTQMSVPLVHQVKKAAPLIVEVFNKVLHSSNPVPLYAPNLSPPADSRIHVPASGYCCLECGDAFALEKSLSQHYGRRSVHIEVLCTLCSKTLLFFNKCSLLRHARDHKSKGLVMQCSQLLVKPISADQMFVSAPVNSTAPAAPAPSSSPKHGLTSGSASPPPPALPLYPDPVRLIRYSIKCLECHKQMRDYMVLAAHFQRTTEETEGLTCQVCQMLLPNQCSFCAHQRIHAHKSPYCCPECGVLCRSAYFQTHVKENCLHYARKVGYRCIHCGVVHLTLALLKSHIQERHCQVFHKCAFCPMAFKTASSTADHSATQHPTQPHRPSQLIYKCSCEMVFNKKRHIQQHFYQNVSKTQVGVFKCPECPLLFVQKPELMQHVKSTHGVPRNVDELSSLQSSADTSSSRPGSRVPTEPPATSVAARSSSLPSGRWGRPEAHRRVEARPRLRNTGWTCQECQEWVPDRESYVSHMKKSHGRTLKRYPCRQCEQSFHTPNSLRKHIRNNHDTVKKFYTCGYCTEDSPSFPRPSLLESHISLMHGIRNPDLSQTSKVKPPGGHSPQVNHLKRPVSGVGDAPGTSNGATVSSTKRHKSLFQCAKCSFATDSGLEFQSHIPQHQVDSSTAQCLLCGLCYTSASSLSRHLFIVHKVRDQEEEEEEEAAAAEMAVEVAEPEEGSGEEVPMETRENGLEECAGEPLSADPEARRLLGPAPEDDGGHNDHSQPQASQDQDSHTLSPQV
UniProt Q8N0Y2: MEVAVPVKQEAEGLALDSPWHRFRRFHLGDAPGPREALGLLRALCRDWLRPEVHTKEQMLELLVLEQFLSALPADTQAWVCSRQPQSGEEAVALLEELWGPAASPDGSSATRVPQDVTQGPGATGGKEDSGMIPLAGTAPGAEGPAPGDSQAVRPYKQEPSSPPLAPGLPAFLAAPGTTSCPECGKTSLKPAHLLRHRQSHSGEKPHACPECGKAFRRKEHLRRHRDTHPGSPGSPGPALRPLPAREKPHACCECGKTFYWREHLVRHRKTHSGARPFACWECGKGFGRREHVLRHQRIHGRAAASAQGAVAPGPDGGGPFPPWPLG

Experiments:
Test in all cases: log2 fold change, soluble protein after heating vs DMSO (PISA); higher = thermal stabilisation; K562 lysate, 10 uM; active = over 0.2 and 3.5 SD of the protein, either way, in both replicates (recomputed)
vemurafenib = compound: CCCS(=O)(=O)Nc1ccc(F)c(C(=O)c2c[nH]c3ncc(-c4ccc(Cl)cc4)cc23)c1F [vemurafenib]
Procedure, shortened: (§1)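 Thermal stability, expressed as log-two fold change relative to solvent controls, is given from duplicates. Crude K562 extract in PBS pH 7.4 with 1 mM MgCl2, at 1 mg/mL protein, was treated with 10 μM compound for 30 min and heated in aliquots for 3 min across 48°C-58°C. After pooling, adjustment to 0.5% NP-40 at 4°C and centrifugation at 21,000xg for 90 min, supernatant protein was measured by TMTpro 16plex LC-MS/MS with channel sums equalised.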

[1] = compound: CCCS(=O)(=O)Nc1ccc(F)c(C(=O)c2c[nH]c3ncc(Cl)cc23)c1F
Procedure, shortened: as §1

barasertib = compound: CCN(CCCOc1ccc2c(Nc3cc(CC(=O)Nc4cccc(F)c4)[nH]n3)ncnc2c1)CCOP(=O)(O)O [barasertib]
Procedure, shortened: as §1

[2] = compound: CC[C@@H]1C(=O)N(C)c2cnc(Nc3ccc(C(=O)NC4CCN(C)CC4)cc3OC)nc2N1C1CCCC1
Procedure, shortened: as §1

volasertib = compound: CC[C@@H]1C(=O)N(C)c2cnc(Nc3ccc(C(=O)N[C@H]4CC[C@H](N5CCN(CC6CC6)CC5)CC4)cc3OC)nc2N1C(C)C [volasertib]
Procedure, shortened: as §1

[3] = compound: CCn1cc(-c2ccnc3[nH]c(-c4cccc(CN(C)C)c4)cc23)c(-c2ccc(NC(=O)N(C)C)cc2)n1
Procedure, shortened: as §1

[4] = compound: CN1CCC(CNc2ccc3ncc(-c4cccc(OC(F)(F)F)c4)n3n2)CC1
Procedure, shortened: as §1

saracatinib = compound: CN1CCN(CCOc2cc(OC3CCOCC3)c3c(Nc4c(Cl)ccc5c4OCO5)ncnc3c2)CC1 [saracatinib]
Procedure, shortened: as §1

sotrastaurin = compound: CN1CCN(c2nc(C3=C(c4c[nH]c5ccccc45)C(=O)NC3=O)c3ccccc3n2)CC1 [sotrastaurin]
Procedure, shortened: as §1

alvocidib = compound: CN1CC[C@H](c2c(O)cc(O)c3c(=O)cc(-c4ccccc4Cl)oc23)[C@H](O)C1 [alvocidib]
Procedure, shortened: as §1

[5] = compound: CNC(=O)C1=CC=CC=C1NC2=NC(=NC=C2Cl)NC3=C(C=C(C=C3)N4CCOCC4)OC
Procedure, shortened: as §1

defactinib = compound: CNC(=O)c1ccc(Nc2ncc(C(F)(F)F)c(NCc3nccnc3N(C)S(C)(=O)=O)n2)cc1 [defactinib]
Procedure, shortened: as §1

[6] = compound: CNc1nc(-c2ccc3c(N)n[nH]c3c2)cc(N2C[C@@H](C(=O)NC3CCCCC3)CC[C@H]2C)n1
Procedure, shortened: as §1

encorafenib = compound: COC(=O)N[C@@H](C)CNc1nccc(-c2cn(C(C)C)nc2-c2cc(Cl)cc(NS(C)(=O)=O)c2F)n1 [encorafenib]
Procedure, shortened: as §1

[7] = compound: COC(=O)[C@H](CCSC)NC(=O)C1=C(C=C(C=C1)NC[C@H](CS)N)C2=CC=CC=C2
Procedure, shortened: as §1

alisertib = compound: COc1cc(Nc2ncc3c(n2)-c2ccc(Cl)cc2C(c2c(F)cccc2OC)=NC3)ccc1C(=O)O [alisertib]
Procedure, shortened: as §1

[8] = compound: COc1cc2nc(-c3cc(F)ccc3O)nc(N[C@@H]3CNC[C@H]3C(C)(C)O)c2cc1OC
Procedure, shortened: as §1

gefitinib = compound: COc1cc2ncnc(Nc3ccc(F)c(Cl)c3)c2cc1OCCCN1CCOCC1 [gefitinib]
Procedure, shortened: as §1

[9] = compound: CCn1c(C(=O)N(C2CC2)C2CC2)cc2c3c(ncn3C)c(Nc3cc(C)n(C)n3)nc21
Procedure, shortened: as §1

Tubastatin A = compound: CN1CCc2c(c3ccccc3n2Cc2ccc(C(=O)NO)cc2)C1 [Tubastatin A]
Procedure, shortened: as §1

ZMIZ2 (UniProt Q8NF64)
log2 fold change (vemurafenib): inactive: -0.01 | log2 fold change [1]: inactive: -0.215 | log2 fold change (barasertib): inactive: 0.024 | log2 fold change [2]: inactive: 0.061 | log2 fold change (volasertib): inactive: 0.142 | log2 fold change [3]: inactive: -0.008 | log2 fold change [4]: inactive: 0.004 | log2 fold change (saracatinib): inactive: 0.141 | log2 fold change (sotrastaurin): inactive: 0.041 | log2 fold change (alvocidib): inactive: 0.067 | log2 fold change [5]: inactive: 0.044 | log2 fold change (defactinib): inactive: -0.04 | log2 fold change [6]: inactive: 0.046 | log2 fold change (encorafenib): inactive: 0.028 | log2 fold change [7]: inactive: -0.011 | log2 fold change (alisertib): inactive: 0.01 | log2 fold change [8]: inactive: 0.116 | log2 fold change (gefitinib): inactive: 0.045

ZZEF1 (UniProt O43149)
log2 fold change (vemurafenib): inactive: -0.013 | log2 fold change [1]: inactive: 0.012 | log2 fold change (barasertib): inactive: 0.051 | log2 fold change [2]: inactive: -0.015 | log2 fold change (volasertib): inactive: -0.028 | log2 fold change [9]: inactive: -0.006 | log2 fold change [3]: inactive: -0.116 | log2 fold change [4]: inactive: 0.029 | log2 fold change (saracatinib): inactive: 0.036 | log2 fold change (sotrastaurin): inactive: 0.01 | log2 fold change (alvocidib): inactive: 0.005 | log2 fold change (Tubastatin A): inactive: -0.025 | log2 fold change [5]: inactive: 0.017 | log2 fold change (defactinib): inactive: -0.022 | log2 fold change [6]: inactive: 0.017 | log2 fold change (encorafenib): inactive: 0.022 | log2 fold change [7]: inactive: 0.065 | log2 fold change (alisertib): inactive: -0.022 | log2 fold change [8]: inactive: 0.007 | log2 fold change (gefitinib): inactive: 0.008

ZMYM1 (UniProt Q5SVZ6)
log2 fold change (vemurafenib): inactive: 0.011 | log2 fold change [1]: inactive: -0.017 | log2 fold change (barasertib): inactive: 0.05 | log2 fold change [2]: inactive: -0.033 | log2 fold change (volasertib): inactive: -0.124 | log2 fold change [9]: inactive: 0.017 | log2 fold change [3]: active: -0.272 | log2 fold change [4]: inactive: 0.127 | log2 fold change (saracatinib): inactive: 0.013 | log2 fold change (sotrastaurin): inactive: 0.05 | log2 fold change (alvocidib): inactive: -0.162 | log2 fold change (Tubastatin A): inactive: -0.098 | log2 fold change [5]: inactive: 0.071 | log2 fold change (defactinib): inactive: -0.035 | log2 fold change [6]: inactive: 0.067 | log2 fold change (encorafenib): inactive: 0.063 | log2 fold change [7]: inactive: -0.038 | log2 fold change (alisertib): inactive: -0.008 | log2 fold change [8]: inactive: 0.03 | log2 fold change (gefitinib): inactive: 0.009

ZNF93 (UniProt P35789)
log2 fold change (vemurafenib): inactive: -0.024 | log2 fold change [1]: inactive: -0.018 | log2 fold change [2]: inactive: 0.001 | log2 fold change (volasertib): inactive: -0.078 | log2 fold change [9]: inactive: -0.02 | log2 fold change (saracatinib): inactive: 0.075 | log2 fold change (sotrastaurin): inactive: 0.085 | log2 fold change (Tubastatin A): inactive: -0.149 | log2 fold change [5]: inactive: -0.024 | log2 fold change (defactinib): inactive: -0.025 | log2 fold change [6]: inactive: 0.089 | log2 fold change (encorafenib): inactive: -0.006 | log2 fold change [7]: inactive: -0.034 | log2 fold change (alisertib): inactive: -0.106 | log2 fold change [8]: inactive: -0.053 | log2 fold change (gefitinib): inactive: 0.337

ZNF609 (UniProt O15014)
log2 fold change (vemurafenib): inactive: 0.165 | log2 fold change [1]: inactive: 0.033 | log2 fold change (barasertib): inactive: 0.027 | log2 fold change [2]: inactive: 0.011 | log2 fold change (volasertib): inactive: 0.005 | log2 fold change [9]: inactive: 0.022 | log2 fold change [3]: inactive: -0.014 | log2 fold change [4]: inactive: 0.064 | log2 fold change (saracatinib): inactive: 0.004 | log2 fold change (sotrastaurin): inactive: 0.013 | log2 fold change (alvocidib): inactive: -0.028 | log2 fold change (Tubastatin A): inactive: -0.044 | log2 fold change [5]: inactive: 0.02 | log2 fold change (defactinib): inactive: -0.026 | log2 fold change [6]: inactive: 0.074 | log2 fold change (encorafenib): inactive: 0.002 | log2 fold change [7]: inactive: 0.013 | log2 fold change (alisertib): inactive: -0.01 | log2 fold change [8]: inactive: 0.018 | log2 fold change (gefitinib): inactive: -0.002

ZYG11A (UniProt Q6WRX3)
log2 fold change [1]: inactive: -0.15 | log2 fold change (barasertib): inactive: 0.286 | log2 fold change (volasertib): inactive: -0.017 | log2 fold change [9]: inactive: -0.035 | log2 fold change [3]: inactive: -0.16 | log2 fold change [4]: inactive: 0.011 | log2 fold change (alvocidib): inactive: -0.18 | log2 fold change (Tubastatin A): inactive: 0.018 | log2 fold change [5]: inactive: -0.013 | log2 fold change (alisertib): inactive: -0.08 | log2 fold change [8]: inactive: 0.212 | log2 fold change (gefitinib): inactive: -0.029

ZNF592 (UniProt Q92610)
log2 fold change [1]: inactive: 0.103 | log2 fold change (barasertib): inactive: 0.042 | log2 fold change [2]: inactive: 0.006 | log2 fold change (volasertib): inactive: -0.067 | log2 fold change [9]: inactive: 0.249 | log2 fold change [3]: inactive: 0.044 | log2 fold change [4]: inactive: -0.065 | log2 fold change (saracatinib): inactive: -0.014 | log2 fold change (sotrastaurin): inactive: 0.04 | log2 fold change (alvocidib): inactive: -0.21 | log2 fold change (Tubastatin A): inactive: -0.156 | log2 fold change [5]: inactive: -0.051 | log2 fold change [6]: inactive: -0.031 | log2 fold change (encorafenib): inactive: -0.074 | log2 fold change [7]: inactive: 0.071 | log2 fold change [8]: inactive: -0.04

ZMYM5 (UniProt Q9UJ78)
log2 fold change (vemurafenib): inactive: 0.102 | log2 fold change [5]: inactive: -0.033 | log2 fold change (defactinib): inactive: -0.059

ZNF785 (UniProt A8K8V0)
log2 fold change [1]: inactive: 0.035 | log2 fold change (volasertib): inactive: -0.016 | log2 fold change (saracatinib): inactive: 0 | log2 fold change [6]: inactive: -0.69 | log2 fold change [8]: inactive: -0.22

ZNF444 (UniProt Q8N0Y2)
log2 fold change (barasertib): inactive: 0.151 | log2 fold change [9]: inactive: 0.026 | log2 fold change [3]: inactive: 0.146 | log2 fold change [4]: inactive: -0.085 | log2 fold change (saracatinib): inactive: -0.002 | log2 fold change (sotrastaurin): inactive: -0.077 | log2 fold change (alvocidib): inactive: 0.021 | log2 fold change (Tubastatin A): inactive: 0.056 | log2 fold change [6]: inactive: 0.009
